Results deposited as PubChem BioAssay AID743454 (Peter MacCallum Cancer Centre, 2014).
In all, the deposit lists about 18,000 reagents; shown is a random part of them. 450 of them (2.5%) count as active. 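Single biological run; no consistent viability z cut-off exists, so the class columns, not z-scores, define the calls.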 Reagent sequences are not shown.

- Purpose: 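Knock-downs lowering viability or raising caspase 3/7 activity in vorinostat-treated resistant cells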 (primary screen)
- System: human HCT116-VR colon cancer cells, selected for vorinostat resistance
- Reagents: siRNA pool against human genes, 40 nM siRNA pool
- Time to read-out: vorinostat for 24 h, read-out about 72 h after transfection
- Conditions: vorinostat at 2.5 µM final
- Read-out: 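Two measures, CellTiter-Fluor viability and luminescent caspase 3/7 activity, each as fold change against same-plate mock wells, mean of duplicates, then screen-wide robust z-score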
- Reading the numbers: viability robust z-score: higher = more viable cells than screen typical; caspase robust z-score: higher = more caspase 3/7 activity than screen typical
- Hit rule: 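a knock-down is a hit when classed RV1 or RV2 for lowered viability, or CA1 or CA2 for caspase activation; those lethal without drug were dropped; hits were retested singly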

{"Gene": "DOK2", "viability hit class": "no change", "caspase hit class": "no change", "viability robust z-score": -1.29, "caspase robust z-score": 1.36, "activity call": "inactive"}
{"Gene": "PLTP", "viability hit class": "no change", "caspase hit class": "no change", "viability robust z-score": 0.84, "caspase robust z-score": -0.6, "activity call": "inactive"}
{"Gene": "DIO3", "viability hit class": "no change", "caspase hit class": "no change", "viability robust z-score": 0.45, "caspase robust z-score": 1.34, "activity call": "inactive"}
{"Gene": "TPK1", "viability hit class": "no change", "caspase hit class": "no change", "viability robust z-score": 0.47, "caspase robust z-score": -0.54, "activity call": "inactive"}
{"Gene": "COX5B", "viability hit class": "no change", "caspase hit class": "no change", "viability robust z-score": 1.19, "caspase robust z-score": -0.04, "activity call": "inactive"}
{"Gene": "ENTPD4", "viability hit class": "no change", "caspase hit class": "no change", "viability robust z-score": -0.19, "caspase robust z-score": -0.04, "activity call": "inactive"}
{"Gene": "NOS2", "viability hit class": "no change", "caspase hit class": "no change", "viability robust z-score": 0.57, "caspase robust z-score": -0.08, "activity call": "inactive"}
{"Gene": "NAB2", "viability hit class": "no change", "caspase hit class": "no change", "viability robust z-score": -0.91, "caspase robust z-score": -0.44, "activity call": "inactive"}
{"Gene": "PRSS27", "viability hit class": "no change", "caspase hit class": "no change", "viability robust z-score": 0.2, "caspase robust z-score": 1.33, "activity call": "inactive"}
{"Gene": "ZNF414", "viability hit class": "no change", "caspase hit class": "no change", "viability robust z-score": 0.12, "caspase robust z-score": 1.04, "activity call": "inactive"}
{"Gene": "CTSL3P", "viability hit class": "no change", "caspase hit class": "no change", "viability robust z-score": 1.06, "caspase robust z-score": -0.66, "activity call": "inactive"}
{"Gene": "LIF", "viability hit class": "no change", "caspase hit class": "no change", "viability robust z-score": -1.32, "caspase robust z-score": 4.74, "activity call": "inactive"}
{"Gene": "LBHD1", "viability hit class": "no change", "caspase hit class": "CA2 (caspase activation)", "viability robust z-score": -0.76, "caspase robust z-score": 5.64, "activity call": "active"}
{"Gene": "APLP1", "viability hit class": "no change", "caspase hit class": "no change", "viability robust z-score": 0.96, "caspase robust z-score": 0.58, "activity call": "inactive"}
{"Gene": "CCNK", "viability hit class": "no change", "caspase hit class": "CA2 (caspase activation)", "viability robust z-score": -2.45, "caspase robust z-score": 7.16, "activity call": "active"}
{"Gene": "NPPA", "viability hit class": "no change", "caspase hit class": "no change", "viability robust z-score": -0.22, "caspase robust z-score": 0.02, "activity call": "inactive"}
{"Gene": "NDST3", "viability hit class": "no change", "caspase hit class": "no change", "viability robust z-score": -1.4, "caspase robust z-score": -0.34, "activity call": "inactive"}
{"Gene": "NT5DC1", "viability hit class": "no change", "caspase hit class": "no change", "viability robust z-score": 0.53, "caspase robust z-score": 0.38, "activity call": "inactive"}
{"Gene": "MCAM", "viability hit class": "no change", "caspase hit class": "no change", "viability robust z-score": 0.82, "caspase robust z-score": 0.73, "activity call": "inactive"}
{"Gene": "SLC16A6", "viability hit class": "no change", "caspase hit class": "no change", "viability robust z-score": -0.56, "caspase robust z-score": -0.48, "activity call": "inactive"}
{"Gene": "CLASRP", "viability hit class": "no change", "caspase hit class": "no change", "viability robust z-score": -0.04, "caspase robust z-score": 2.13, "activity call": "inactive"}
{"Gene": "OR5D14", "viability hit class": "no change", "caspase hit class": "no change", "viability robust z-score": -0.44, "caspase robust z-score": 2.34, "activity call": "inactive"}
{"Gene": "P2RY4", "viability hit class": "no change", "caspase hit class": "no change", "viability robust z-score": 0.78, "caspase robust z-score": -0.16, "activity call": "inactive"}
{"Gene": "DLEU7", "viability hit class": "no change", "caspase hit class": "no change", "viability robust z-score": -0.52, "caspase robust z-score": -0.16, "activity call": "inactive"}
{"Gene": "C1QTNF5", "viability hit class": "no change", "caspase hit class": "no change", "viability robust z-score": -0.34, "caspase robust z-score": 1.55, "activity call": "inactive"}
{"Gene": "A2ML1", "viability hit class": "no change", "caspase hit class": "no change", "viability robust z-score": 1.09, "caspase robust z-score": -0.62, "activity call": "inactive"}
{"Gene": "NXNL1", "viability hit class": "no change", "caspase hit class": "no change", "viability robust z-score": 0.2, "caspase robust z-score": 0.72, "activity call": "inactive"}

Active calls, among the entries above:
{"Gene": "LBHD1", "viability hit class": "no change", "caspase hit class": "CA2 (caspase activation)", "viability robust z-score": -0.76, "caspase robust z-score": 5.64, "activity call": "active"}
{"Gene": "CCNK", "viability hit class": "no change", "caspase hit class": "CA2 (caspase activation)", "viability robust z-score": -2.45, "caspase robust z-score": 7.16, "activity call": "active"}
